# Experimental data: article PMC2634843
# The chains behind the UniProt entries cited, without tags or fusion partners. Where a name states a change or a piece, a line headed by the entry shows the natural chain unless it says otherwise.
# UniProt P78527: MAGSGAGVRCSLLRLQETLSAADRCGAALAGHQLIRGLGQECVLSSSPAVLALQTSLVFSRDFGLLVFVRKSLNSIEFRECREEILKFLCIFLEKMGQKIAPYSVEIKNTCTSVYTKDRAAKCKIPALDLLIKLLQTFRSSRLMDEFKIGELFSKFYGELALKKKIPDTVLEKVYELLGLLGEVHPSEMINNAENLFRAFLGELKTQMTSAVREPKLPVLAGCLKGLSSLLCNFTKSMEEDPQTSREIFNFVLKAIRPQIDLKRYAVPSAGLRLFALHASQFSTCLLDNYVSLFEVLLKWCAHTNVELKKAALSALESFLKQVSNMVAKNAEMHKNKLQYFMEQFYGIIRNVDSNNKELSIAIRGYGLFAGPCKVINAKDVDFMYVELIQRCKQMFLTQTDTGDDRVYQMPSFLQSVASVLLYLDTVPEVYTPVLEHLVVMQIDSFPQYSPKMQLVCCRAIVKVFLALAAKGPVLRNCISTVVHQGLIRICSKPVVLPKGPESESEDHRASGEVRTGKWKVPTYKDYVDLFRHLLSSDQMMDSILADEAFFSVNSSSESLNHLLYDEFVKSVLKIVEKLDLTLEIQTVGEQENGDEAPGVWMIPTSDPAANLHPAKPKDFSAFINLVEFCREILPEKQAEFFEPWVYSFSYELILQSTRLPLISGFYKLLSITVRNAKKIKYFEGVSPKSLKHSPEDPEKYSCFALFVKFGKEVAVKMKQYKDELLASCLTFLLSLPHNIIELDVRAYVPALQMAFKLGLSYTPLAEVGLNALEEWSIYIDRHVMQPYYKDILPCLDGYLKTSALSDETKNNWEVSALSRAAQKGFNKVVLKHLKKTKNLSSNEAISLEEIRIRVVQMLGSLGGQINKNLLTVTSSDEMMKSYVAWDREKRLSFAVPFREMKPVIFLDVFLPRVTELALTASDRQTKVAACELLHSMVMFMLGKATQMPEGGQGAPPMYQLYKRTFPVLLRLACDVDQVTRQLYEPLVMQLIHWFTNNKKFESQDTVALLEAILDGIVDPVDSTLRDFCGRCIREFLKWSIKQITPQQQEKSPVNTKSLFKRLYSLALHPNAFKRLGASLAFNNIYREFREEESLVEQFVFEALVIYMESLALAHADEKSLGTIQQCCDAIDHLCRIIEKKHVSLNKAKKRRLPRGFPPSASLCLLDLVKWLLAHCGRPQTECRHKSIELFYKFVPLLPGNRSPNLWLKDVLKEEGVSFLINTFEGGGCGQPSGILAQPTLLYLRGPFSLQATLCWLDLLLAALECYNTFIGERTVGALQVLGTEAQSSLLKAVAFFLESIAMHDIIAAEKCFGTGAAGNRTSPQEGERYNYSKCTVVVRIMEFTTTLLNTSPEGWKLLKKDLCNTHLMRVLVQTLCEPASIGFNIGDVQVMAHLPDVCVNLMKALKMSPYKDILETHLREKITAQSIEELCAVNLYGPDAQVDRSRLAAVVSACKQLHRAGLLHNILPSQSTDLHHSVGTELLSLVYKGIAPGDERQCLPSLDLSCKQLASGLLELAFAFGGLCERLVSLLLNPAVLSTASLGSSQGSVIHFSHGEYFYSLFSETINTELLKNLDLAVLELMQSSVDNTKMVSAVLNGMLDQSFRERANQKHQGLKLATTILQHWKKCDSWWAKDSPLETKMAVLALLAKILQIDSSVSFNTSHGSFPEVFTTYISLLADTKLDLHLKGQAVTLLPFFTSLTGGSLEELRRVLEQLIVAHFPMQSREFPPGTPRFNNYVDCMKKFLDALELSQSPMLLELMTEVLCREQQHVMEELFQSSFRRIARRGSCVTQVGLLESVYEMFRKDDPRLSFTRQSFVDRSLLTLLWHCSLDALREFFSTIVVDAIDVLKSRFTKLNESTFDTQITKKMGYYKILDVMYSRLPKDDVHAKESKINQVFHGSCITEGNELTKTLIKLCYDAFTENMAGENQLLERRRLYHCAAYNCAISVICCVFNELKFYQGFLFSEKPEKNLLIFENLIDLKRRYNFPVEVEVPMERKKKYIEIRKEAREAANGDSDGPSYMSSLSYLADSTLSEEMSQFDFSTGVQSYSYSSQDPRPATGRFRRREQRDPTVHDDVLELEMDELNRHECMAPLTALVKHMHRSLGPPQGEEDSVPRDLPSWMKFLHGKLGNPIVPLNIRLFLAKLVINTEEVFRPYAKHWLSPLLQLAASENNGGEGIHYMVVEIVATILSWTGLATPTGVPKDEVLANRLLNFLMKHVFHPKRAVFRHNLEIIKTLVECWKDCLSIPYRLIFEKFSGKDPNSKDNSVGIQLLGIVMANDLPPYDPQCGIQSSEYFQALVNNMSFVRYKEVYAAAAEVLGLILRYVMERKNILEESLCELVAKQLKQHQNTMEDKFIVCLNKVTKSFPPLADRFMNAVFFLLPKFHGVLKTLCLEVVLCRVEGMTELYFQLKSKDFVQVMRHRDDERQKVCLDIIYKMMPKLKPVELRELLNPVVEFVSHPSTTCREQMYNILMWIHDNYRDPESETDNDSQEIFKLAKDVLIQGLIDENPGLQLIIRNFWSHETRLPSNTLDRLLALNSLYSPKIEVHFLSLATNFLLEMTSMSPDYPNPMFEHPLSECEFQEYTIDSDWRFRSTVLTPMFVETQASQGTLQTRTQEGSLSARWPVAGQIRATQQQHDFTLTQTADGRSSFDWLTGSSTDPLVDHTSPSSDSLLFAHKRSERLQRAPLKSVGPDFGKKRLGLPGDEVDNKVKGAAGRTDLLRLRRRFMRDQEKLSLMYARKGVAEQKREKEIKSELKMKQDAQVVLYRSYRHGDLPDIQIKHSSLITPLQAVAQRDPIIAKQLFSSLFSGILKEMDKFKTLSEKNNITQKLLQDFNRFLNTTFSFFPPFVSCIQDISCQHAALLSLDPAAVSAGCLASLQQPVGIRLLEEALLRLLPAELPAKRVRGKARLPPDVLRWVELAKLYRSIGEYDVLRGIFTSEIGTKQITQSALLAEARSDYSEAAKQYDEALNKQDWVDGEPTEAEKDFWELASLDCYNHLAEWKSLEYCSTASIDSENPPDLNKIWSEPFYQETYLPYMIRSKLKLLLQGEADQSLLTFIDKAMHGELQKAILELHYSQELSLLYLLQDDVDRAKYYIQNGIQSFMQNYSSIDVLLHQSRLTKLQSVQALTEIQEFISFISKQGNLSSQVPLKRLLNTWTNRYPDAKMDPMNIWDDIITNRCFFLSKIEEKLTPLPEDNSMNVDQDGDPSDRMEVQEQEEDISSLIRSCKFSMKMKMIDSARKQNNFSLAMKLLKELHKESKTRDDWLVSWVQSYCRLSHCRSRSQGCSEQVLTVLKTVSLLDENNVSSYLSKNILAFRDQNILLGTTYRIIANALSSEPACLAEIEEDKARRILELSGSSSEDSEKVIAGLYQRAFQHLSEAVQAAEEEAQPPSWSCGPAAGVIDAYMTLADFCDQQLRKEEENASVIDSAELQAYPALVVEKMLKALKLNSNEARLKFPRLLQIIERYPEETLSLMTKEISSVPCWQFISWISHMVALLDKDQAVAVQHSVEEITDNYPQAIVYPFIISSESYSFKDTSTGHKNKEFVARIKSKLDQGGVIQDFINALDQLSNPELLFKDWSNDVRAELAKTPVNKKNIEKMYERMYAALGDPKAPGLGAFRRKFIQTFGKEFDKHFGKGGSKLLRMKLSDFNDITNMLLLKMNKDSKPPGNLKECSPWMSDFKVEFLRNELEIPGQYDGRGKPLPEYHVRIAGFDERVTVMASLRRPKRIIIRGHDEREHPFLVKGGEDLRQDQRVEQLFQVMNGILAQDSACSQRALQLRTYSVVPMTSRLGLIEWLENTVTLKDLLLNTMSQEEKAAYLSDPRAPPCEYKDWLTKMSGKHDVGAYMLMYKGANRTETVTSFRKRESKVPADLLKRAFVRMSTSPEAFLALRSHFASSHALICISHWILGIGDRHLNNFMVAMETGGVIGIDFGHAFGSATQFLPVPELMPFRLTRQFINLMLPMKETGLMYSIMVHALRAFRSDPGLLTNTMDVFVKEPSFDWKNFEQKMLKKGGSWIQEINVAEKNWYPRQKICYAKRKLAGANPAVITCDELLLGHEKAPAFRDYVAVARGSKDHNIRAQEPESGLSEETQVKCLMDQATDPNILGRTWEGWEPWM
# Results are given in words; binding and its absence hold for the method and conditions named. Binding seen in cells or lysates may run through a third protein. Some binding calls cover weakened binding; strength is not graded here.
# Assays:
# [1] = biological target: endogenous DNA-PKcs (DNA-PK catalytic subunit) (human (endogenous in M059K)) (UniProt P78527); assay: co-IP; nuclear extracts of M059K cells one hour after 0, 5 or 10 Gy; immunoprecipitation of endogenous DNA-PKcs; immunoblots quantified by densitometry
# [2] = biological target: endogenous DNA-PKcs (DNA-PK catalytic subunit) (human (endogenous in M059K)) (UniProt P78527); assay: co-IP; extracts of irradiated (10 Gy) M059K cells, lysis buffer with 0.5% NP-40; 1 mg total protein with 4 ug monoclonal anti-DNA-PKcs antibody at 4°C overnight, protein-A agarose; immunoblot for PP6R1 and PP6c
binding [1],binding [2],Binder
binds,binds,"endogenous PP6R1 (protein, UniProt Q9UPN7 1-881) MFWKFDLHTSSHLDTLLEREDLSLPELLDEEDVLQECKVVNRKLLDFLLQPPHLQAMVAWVTQEPPDSGEERLRYKYPSVACEILTSDVPQINDALGADESLLNRLYGFLQSTGSLNPLLASFFSKVMGILINRKTDQLVSFLRKKDDFVDLLLQHIGTSAIMDLLLRLLTCVERPQLRQDVVNWLNEEKIVQRLIEQIHPSKDENQHSNASQSLCDIIRLSREQMIQVQDSPEPDQLLATLEKQETIEQLLSNMFEGEQSQSVIVSGIQVLLTLLEPRRPRSESVTVNSFFSSVDGQLELLAQGALESTVSSVGALHALRPRLSCFHQLLLEPPKLEPLQMTWGMLAPPLGNTRLHVVKLLASALSANDAALTHELLALDVPNTMLDLFFHYVFNNFLHAQVEGCVSTMLSLGPPPDSSPETPIQNPVVKHLLQQCRLVERILTSWEENDRVQCAGGPRKGYMGHLTRVAGALVQNTEKGPNAEQLRQLLKELPSEQQEQWEAFVSGPLAETNKKNMVDLVNTHHLHSSSDDEDDRLKEFNFPEEAVLQQAFMDFQMQRMTSAFIDHFGFNDEEFGEQEESVNAPFDKTANITFSLNADDENPNANLLEICYKDRIQQFDDDEEEEDEEEAQGSGESDGEDGAWQGSQLARGARLGQPPGVRSGGSTDSEDEEEEDEEEEEDEEGIGCAARGGATPLSYPSPGPQPPGPSWTATFDPVPTDAPTSPRVSGEEELHTGPPAPQGPLSVPQGLPTQSLASPPARDALQLRSQDPTPPSAPQEATEGSKVTEPSAPCQALVSIGDLQATFHGIRSAPSSSDSATRDPSTSVPASGAHQPPQTTEGEKSPEPLGLPQSQSAQALTPPPIPNGSAPEGPASPGSQ"
binds,binds,"endogenous PP6c (enzyme, UniProt O00743 1-305) MAPLDLDKYVEIARLCKYLPENDLKRLCDYVCDLLLEESNVQPVSTPVTVCGDIHGQFYDLCELFRTGGQVPDTNYIFMGDFVDRGYYSLETFTYLLALKAKWPDRITLLRGNHESRQITQVYGFYDECQTKYGNANAWRYCTKVFDMLTVAALIDEQILCVHGGLSPDIKTLDQIRTIERNQEIPHKGAFCDLVWSDPEDVDTWAISPRGAGWLFGAKVTNEFVHINNLKLICRAHQLVHEGYKFMFDEKLVTVWSAPNYCYRCGNIASIMVFKDVNTREPKLFRAVPDSERVIPPRTTTPYFL"
